Data as given in PubChem BioAssay AID1224828 (NIAID, 2016).
In all, the deposit lists about 17,000 reagents; below is a part drawn at random. 762 of them (4.5%) count as active. 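Active calls include both raised and lowered p65 entry, mostly lowered; wells with fewer than 50 cells lack a z-score.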 Raw values vary from plate to plate and are shown uncorrected. Unmarked entries are inactive.

- Screen: 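Knock-downs that increase or decrease LPS-induced p65 nuclear translocation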 (primary screen)
- Cells: mouse RAW264.7 G9 macrophage reporter cells (GFP-p65, Tnf promoter-mCherry)
- Reagents: siRNA pool against mouse genes, 100 nM
- Time to read-out: 2 days siRNA transfection, then 40 min LPS before fixation
- Conditions: LPS (Salmonella minnesota R595) at 10 ng/ml
- Measurement: 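Imaged p65 nuclear translocation ratio, normalised to the plate median, converted to robust z-scores and averaged across two replicates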
- Reading the numbers: p65 translocation robust z-score: higher = more nuclear NF-kappaB p65 after LPS than the plate median; nuclear/cytoplasmic p65 ratio: higher = more nuclear NF-kappaB p65
- Active means: 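Called active when z exceeds 3.3 or falls under -1.56 (median of Tlr4 controls), giving activity score of at least 50; no calls for control wells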
- Meaning of the calls: active = hit (p65 shift raised or lowered); inactive = no clear change

gene | p65 translocation robust z-score | nuclear/cytoplasmic p65 ratio, rep 1 | nuclear/cytoplasmic p65 ratio, rep 2 | low cell count flag
Or5w20 (olfactory receptor family 5 subfamily W member 20) | -2.39 (active) | 1.35 | 1.17 | enough cells to score
Epm2aip1 (EPM2A interacting protein 1) | 0.65 | 1.63 | 1.61 | enough cells to score
Oca2 (oculocutaneous albinism II) | 0.71 | 1.52 | 1.53 | enough cells to score
Ceacam14 (CEA cell adhesion molecule 14) | 0.31 | 1.71 | 1.76 | enough cells to score
Cited4 | 0.14 | 1.41 | 1.46 | enough cells to score
Eif3l (eukaryotic translation initiation factor 3, subunit L) | -0.96 | 1.28 | 1.29 | enough cells to score
Htr2b (5-hydroxytryptamine (serotonin) receptor 2B) | – | 1.28 | 1.06 | fewer than 50 cells per well; well left out of scoring
Mrpl53 (mitochondrial ribosomal protein L53) | 0.39 | 1.86 | 1.64 | enough cells to score
Irebf1 (retired record) | -1.35 | 1.37 | 1.24 | enough cells to score
Zbtb39 (zinc finger and BTB domain containing 39) | 1.06 | 1.61 | 1.65 | enough cells to score
Uba52 (ubiquitin A-52 residue ribosomal protein fusion product 1) | -0.86 | 1.34 | 1.43 | enough cells to score
Hps6 (HPS6, biogenesis of lysosomal organelles complex 2 subunit 3) | 0.2 | 1.52 | 1.34 | enough cells to score
Pde6h (phosphodiesterase 6H, cGMP-specific, cone, gamma) | -1.36 | 1.26 | 1.24 | enough cells to score
Or13l2 (olfactory receptor family 13 subfamily L member 2) | 0.33 | 1.5 | 1.69 | enough cells to score
Or13c3 (olfactory receptor family 13 subfamily C member 3) | -1.13 | 1.46 | 1.26 | enough cells to score
Zfp455 (zinc finger protein 455) | – | 1.06 | 1.18 | fewer than 50 cells per well; well left out of scoring
Chka (choline kinase alpha) | 3.25 | 1.93 | 1.8 | enough cells to score
Or4e2 (olfactory receptor family 4 subfamily E member 2) | -0.26 | 1.5 | 1.45 | enough cells to score
Pctp (phosphatidylcholine transfer protein) | -0.39 | 1.39 | 1.18 | enough cells to score
Lbx2 (ladybird homeobox 2) | -0.13 | 1.61 | 1.35 | enough cells to score
Mllt11 | 1.43 | 1.73 | 1.94 | enough cells to score
Stard7 (StAR related lipid transfer domain containing 7) | 0.45 | 1.55 | 1.22 | enough cells to score
Fgf14 (fibroblast growth factor 14) | 1.24 | 1.59 | 1.54 | enough cells to score

Next part, starting with the last 2 of the part before.
gene | p65 translocation robust z-score | nuclear/cytoplasmic p65 ratio, rep 1 | nuclear/cytoplasmic p65 ratio, rep 2 | low cell count flag
Stard7 (StAR related lipid transfer domain containing 7) | 0.45 | 1.55 | 1.22 | enough cells to score
Fgf14 (fibroblast growth factor 14) | 1.24 | 1.59 | 1.54 | enough cells to score
Cr2 (complement receptor 2) | 0.27 | 1.51 | 1.42 | enough cells to score
Rilpl2 (Rab interacting lysosomal protein-like 2) | 0.22 | 1.55 | 1.74 | enough cells to score
Elovl5 (ELOVL fatty acid elongase 5) | -0.33 | 1.42 | 1.32 | enough cells to score
Zim1 (zinc finger, imprinted 1) | – | 1.09 | 0.999 | fewer than 50 cells per well; well left out of scoring
Dram1 (DNA-damage regulated autophagy modulator 1) | -0.19 | 1.44 | 1.39 | enough cells to score
Prl8a6 (prolactin family 8, subfamily a, member 6) | 0.13 | 1.43 | 1.2 | enough cells to score
Eef1b2 (eukaryotic translation elongation factor 1 beta 2) | 0.4 | 1.59 | 1.36 | enough cells to score
Hsf4 (heat shock transcription factor 4) | -1.16 | 1.16 | 1.35 | enough cells to score
Ilf2 (interleukin enhancer binding factor 2) | -1.1 | 1.37 | 1.2 | enough cells to score
Apex1 (apurinic/apyrimidinic endonuclease 1) | 0.03 | 1.64 | 1.61 | enough cells to score
Dnttip1 (deoxynucleotidyltransferase, terminal, interacting protein 1) | 0.28 | 1.56 | 1.37 | enough cells to score
Dmrta1 | – | 1.47 | 1.51 | fewer than 50 cells per well; well left out of scoring
Or2w4 (olfactory receptor family 2 subfamily W member 4) | 0.39 | 1.66 | 1.45 | enough cells to score
P2ry10b (purinergic receptor P2Y, G-protein coupled 10B) | -1.54 | 1.21 | 1.31 | enough cells to score
Wdr54 (WD repeat domain 54) | – | 1.13 | 1.32 | fewer than 50 cells per well; well left out of scoring
Ppp2r5c (protein phosphatase 2, regulatory subunit B', gamma) | 0.5 | 1.53 | 1.5 | enough cells to score
Hdhd3 (haloacid dehalogenase-like hydrolase domain containing 3) | -1.43 | 1.42 | 1.38 | enough cells to score
Stab1 (stabilin 1) | 0.08 | 1.4 | 1.26 | enough cells to score
Prl3d1 (prolactin family 3, subfamily d, member 1) | -0.8 | 1.32 | 1.8 | enough cells to score
Rnd3 (Rho family GTPase 3) | 1.52 | 1.78 | 1.68 | enough cells to score
Chp1 (calcineurin-like EF hand protein 1) | 0.93 | 1.58 | 1.66 | enough cells to score
Baiap2l2 (BAI1-associated protein 2-like 2) | 2.72 | 1.7 | 2 | enough cells to score
Zfp467 (zinc finger protein 467) | 0.92 | 1.5 | 1.39 | enough cells to score
Abca2 (ATP-binding cassette, sub-family A member 2) | 0.66 | 1.66 | 1.83 | enough cells to score
Tlr12 (toll-like receptor 12) | – | 1.16 | 1.08 | fewer than 50 cells per well; well left out of scoring
Zfp423 (zinc finger protein 423) | -0.17 | 1.4 | 1.56 | enough cells to score
Or1j11 (olfactory receptor family 1 subfamily J member 11) | -1.29 | 1.41 | 1.11 | enough cells to score
Cenpp (centromere protein P) | – | 1.3 | 1.56 | fewer than 50 cells per well; well left out of scoring
Bicdl2 (BICD family like cargo adaptor 2) | 4.19 (active) | 1.92 | 2.19 | enough cells to score
Plod1 (procollagen-lysine, 2-oxoglutarate 5-dioxygenase 1) | 0.03 | 1.49 | 1.42 | enough cells to score
Tmlhe (trimethyllysine hydroxylase, epsilon) | – | 1.32 | 1.17 | fewer than 50 cells per well; well left out of scoring
Or11g25 (olfactory receptor family 11 subfamily G member 25) | – | 1.37 | 1.18 | fewer than 50 cells per well; well left out of scoring
Sema4f | 0.56 | 1.51 | 1.29 | enough cells to score
Sst (somatostatin) | – | 1.23 | 1.44 | fewer than 50 cells per well; well left out of scoring
Avil (advillin) | 1.81 | 1.47 | 1.84 | enough cells to score
Pkd1l3 (polycystic kidney disease 1 like 3) | 0.08 | 1.44 | 1.18 | enough cells to score
